According to PMC5653820:
These are yes or no findings as the source states them, for the method shown. In cells and extracts the contact can be indirect. Some results given as binding are weak or reduced against the parent protein; the word gives no strength. Blank lines part the entries; values can stand above or below the molecule they belong to.

Amino acid sequences for entries named in this document (tags omitted).
UniProt P61809: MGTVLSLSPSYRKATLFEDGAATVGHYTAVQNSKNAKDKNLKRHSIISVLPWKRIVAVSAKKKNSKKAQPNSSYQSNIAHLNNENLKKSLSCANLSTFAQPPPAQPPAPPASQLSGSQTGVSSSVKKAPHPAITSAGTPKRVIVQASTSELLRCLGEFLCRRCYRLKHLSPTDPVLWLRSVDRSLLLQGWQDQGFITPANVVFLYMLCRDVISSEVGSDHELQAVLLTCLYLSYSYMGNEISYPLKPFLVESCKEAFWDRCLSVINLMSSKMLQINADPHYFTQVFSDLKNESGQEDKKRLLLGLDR

How the values were obtained:
Assay in all cases: co-IP; endogenous proteins in melanocyte lysate; primary antibody (anti-Cdk5; reciprocal: anti-p35 or anti-K10) overnight at 4 °C, protein G agarose beads 2 h at 4 °C; Western blot; IgG as negative control
[1] = target: T1, Keratin 10 (not stated (alpaca melanocytes in the results, mouse melanocytes in the methods)) (UniProt P02535)
T1 sequence: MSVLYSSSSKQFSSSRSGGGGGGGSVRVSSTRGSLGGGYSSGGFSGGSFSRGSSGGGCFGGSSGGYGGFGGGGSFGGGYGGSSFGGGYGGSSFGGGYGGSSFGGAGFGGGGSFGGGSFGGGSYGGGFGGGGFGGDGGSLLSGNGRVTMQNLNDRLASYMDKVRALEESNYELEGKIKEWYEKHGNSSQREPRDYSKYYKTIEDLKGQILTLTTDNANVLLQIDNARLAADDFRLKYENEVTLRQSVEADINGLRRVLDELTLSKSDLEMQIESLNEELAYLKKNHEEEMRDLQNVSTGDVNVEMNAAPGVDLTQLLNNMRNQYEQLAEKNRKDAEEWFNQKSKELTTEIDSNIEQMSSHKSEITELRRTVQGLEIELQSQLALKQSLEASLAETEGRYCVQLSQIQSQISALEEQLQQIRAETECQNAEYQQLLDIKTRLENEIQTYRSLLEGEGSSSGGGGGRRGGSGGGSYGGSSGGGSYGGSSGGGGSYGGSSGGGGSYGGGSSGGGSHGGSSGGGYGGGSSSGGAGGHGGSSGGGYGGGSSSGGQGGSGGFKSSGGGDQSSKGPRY

[2] = target: p35 (mouse) (mouse (endogenous in mouse melanocytes)) (UniProt P61809)
[3] = target: cyclin-dependent kinase 5 (mouse) (mouse (endogenous in mouse melanocytes)) (UniProt P49615)
[4] = target: cyclin-dependent kinase 5 (melanocytes of the K10 experiments) (not stated (alpaca melanocytes in the results, mouse melanocytes in the methods)) (UniProt P49615)

- binding [1]: binds
Molecule: cyclin-dependent kinase 5 (melanocytes of the K10 experiments) (from UniProt P49615 1-292) (enzyme)

- binding [2]: binds
Molecule: cyclin-dependent kinase 5 (mouse) (from UniProt P49615 1-292) (enzyme)

- binding [3]: binds
Molecule: p35 (mouse) (from UniProt P61809 1-307)

- binding [4]: binds
B1: Keratin 10 (protein, UniProt P02535 1-570)
chain: T1 sequence
